Assay results from publication PMC7482815.

What was measured:
Assay in all cases: co-IP; whole cell lysates of HeLa cells transfected with ECT2/wt, ECT2/GEF^mt or FLAG-tagged deletion mutants of USP7 or ECT2; the partner detected by immunoblot
[1] = target: FLAG-tagged CD domain of USP7
[2] = target: FLAG-tagged MATH domain deficient USP7 (USP7/ΔMATH)
[3] = target: FLAG-tagged ubiquitin like (UBL) domain of USP7

B1: epithelial cell transforming sequence 2 (ECT2), endogenous (protein, UniProt Q9H8V3-4 1-883)
chain: MAENSVLTSTTGRTSLADSSIFDSKVTEISKENLLIGSTSYVEEEMPQIETRVILVQEAGKQEELIKALKDIKVGFVKMESVEEFEGLDSPEFENVFVVTDFQDSVFNDLYKADCRVIGPPVVLNCSQKGEPLPFSCRPLYCTSMMNLVLCFTGFRKKEELVRLVTLVHHMGGVIRKDFNSKVTHLVANCTQGEKFRVAVSLGTPIMKPEWIYKAWERRNEQDFYAAVDDFRNEFKVPPFQDCILSFLGFSDEEKTNMEEMTEMQGGKYLPLGDERCTHLVVEENIVKDLPFEPSKKLYVVKQEWFWGSIQMDARAGETMYLYEKANTPELKKSVSMLSLNTPNSNRKRRRLKETLAQLSRETDVSPFPPRKRPSAEHSLSIGSLLDISNTPESSINYGDTPKSCTKSSKSSTPVPSKQSARWQVAKELYQTESNYVNILATIIQLFQVPLEEEGQRGGPILAPEEIKTIFGSIPDIFDVHTKIKDDLEDLIVNWDESKSIGDIFLKYSKDLVKTYPPFVNFFEMSKETIIKCEKQKPRFHAFLKINQAKPECGRQSLVELLIRPVQRLPSVALLLNDLKKHTADENPDKSTLEKAIGSLKEVMTHINEDKRKTEAQKQIFDVVYEVDGCPANLLSSHRSLVQRVETISLGEHPCDRGEQVTLFLFNDCLEIARKRHKVIGTFRSPHGQTRPPASLKHIHLMPLSQIKKVLDIRETEDCHNAFALLVRPPTEQANVLLSFQMTSDELPKENWLKMLCRHVANTICKADAENLIYTADPESFEVNTKDMDSTLSRASRAIKKTSKKVTRAFSFSKTPKRALRRALMTSHGSVEGRSPSSNDKHVMSRLSSTSSLAGIPSPSLVSLPSFFERRSHTLSRSTTHLI
binding [1]: no binding
binding [2]: binds
binding [3]: no binding

No constants are given. Whether binding was seen depends on the method and setting. In cells and extracts the contact can be indirect. For part of these data: Binding can be weak; no strength is given.
